In this data set the test system is mammary gland 4T1 cancer cell line. As to the kind of experiment: Crystal violet cytotoxicity assay, E-DAPL/Dox combination. Conditions: 4T1 cells. In kind it is cell-based. As for the experimental part:
The potentiation of cytotoxic effect of E-DAPL/Dox combination was evaluated. The dose-effect relationship of individual drugs and E-DAPL/Dox mixture (ratio 202:1 was tested) was determined on mammary gland 4T1 cancer cell line by means of crystal violet assay (three measurements). The linearized Median-Effect Plot of dose response line provided both parameters (IC50; trend line m value) of Median-Effect Equation for individual and combination treatment [ref: Theoretical basis, experimental design, and computerized simulation of synergism and antagonism in drug combination studies; Ting-Chao Chou: Pharmacol Rev. 58(3), 2006, 621-81; Erratum in Pharmacol Rev. 2007; 59(1), 124]:
Potentiation of combination effect of E-DAPL/Dox/202:1 was expressed for the concentrations IC1 to IC60 by calculation of Combination index (CI) applying Combination Index Theorem for mutually nonexclusive drugs that obey higher order conditions [ref: Quantitative analysis of dose-effect relationships: the combined effects of multiple drugs or enzyme inhibitors; Ting-Chao Chou, Paul Talalay: Advances in Enzyme Regulation, Volume 22, 1984, Pages 27-55]: […]

Each structure is given as a SMILES string.

For `COc1cccc2c1C(=O)c1c(O)c3c(c(O)c1C2=O)C[C@@](O)(C(=O)CO)C[C@@H]3O[C@H]1C[C@H](N)[C@H](O)[C@H](C)O1` [Dox, doxorubicin], the “m value trend line” value (Median-Effect Plot) is 0.7877. Moreover, the Dose-effect curve result (shape of curve) was “flat sigmoidal”.

Source of the values: US11414443B2, “Phospholipid derivatives and their use as medicaments” (USTAV MOLEKULARNI GENETIKY AV CR, V.V.I., priority 2017, dated 2022).
